PubChem BioAssay AID743454 – Peter MacCallum Cancer Centre – 2014
Screen: 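Genes whose loss kills vorinostat-resistant colon cancer cells under vorinostat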 (primary screen). Cells: human HCT116-VR colon cancer cells, selected for vorinostat resistance. Knock-down reagent: siRNA pool against human genes, 40 nM siRNA pool. Timing: vorinostat for 24 h, read-out about 72 h after transfection. Conditions: vorinostat at 2.5 µM final. Measurement: 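Cell viability by CellTiter-Fluor and caspase 3/7 activity by luminescence, each scaled to mock wells per plate, duplicates averaged, then robust z-scored over all plates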. Scale: viability robust z-score: higher = more viable cells than screen typical; caspase robust z-score: higher = more caspase 3/7 activity than screen typical. Rule for the call: 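Hits are knock-downs in viability class RV1/RV2 or caspase class CA1/CA2, excluding ones that killed cells in the no-drug cell-count arm; hits then retested with single siRNAs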.
In all, the deposit lists about 18,000 reagents; shown is a part drawn at random. 450 of them (2.5%) count as active. 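Single biological run; no consistent viability z cut-off exists, so the class columns, not z-scores, define the calls.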 Unmarked entries are inactive. Reagent sequences are not shown.

What is on record for NELL2 (GeneID 4753)?
viability hit class: no change; caspase hit class: no change; viability robust z-score: 0.59; caspase robust z-score: 0.32

What did the screen give for THEMIS (GeneID 387357)?
viability hit class: no change; caspase hit class: no change; viability robust z-score: 1.67; caspase robust z-score: 0.88

What did the screen give for NCK1 (GeneID 4690)?
viability hit class: no change; caspase hit class: no change; viability robust z-score: 0.56; caspase robust z-score: -0.5

How did the screen score C4orf36 (GeneID 132989)?
viability hit class: no change; caspase hit class: no change; viability robust z-score: -1.85; caspase robust z-score: 0.4

How did the screen score CPNE2 (GeneID 221184)?
viability hit class: no change; caspase hit class: no change; viability robust z-score: 0.25; caspase robust z-score: -1.21

How did the screen score TMEM255B (GeneID 348013)?
viability hit class: no change; caspase hit class: no change; viability robust z-score: -1.72; caspase robust z-score: 2.66

Which result is listed for TACSTD2 (GeneID 4070)?
viability hit class: no change; caspase hit class: no change; viability robust z-score: -0.46; caspase robust z-score: 1.39

How did the screen score UGGT1 (GeneID 56886)?
viability hit class: no change; caspase hit class: no change; viability robust z-score: 0.11; caspase robust z-score: -0.56

What did the screen give for TLCD1 (GeneID 116238)?
viability hit class: no change; caspase hit class: no change; viability robust z-score: 0.12; caspase robust z-score: -0.96

What did the screen give for RTL5 (GeneID 340526)?
viability hit class: no change; caspase hit class: no change; viability robust z-score: 0.9; caspase robust z-score: 0.21

With RMI1 (GeneID 80010), what was measured?
viability hit class: no change; caspase hit class: no change; viability robust z-score: -0.12; caspase robust z-score: -0.68

With SIPA1L2 (GeneID 57568), how do the results read?
viability hit class: no change; caspase hit class: no change; viability robust z-score: -0.34; caspase robust z-score: -0.78

With OR6B1 (GeneID 135946), how do the results read?
viability hit class: no change; caspase hit class: no change; viability robust z-score: -0.13; caspase robust z-score: 0.6

How did the screen score TRIM3 (GeneID 10612)?
viability hit class: no change; caspase hit class: no change; viability robust z-score: -1.54; caspase robust z-score: 4.18

Which result is listed for VCF1 (GeneID 84923)?
viability hit class: no change; caspase hit class: no change; viability robust z-score: -0.18; caspase robust z-score: 0.01

What did the screen give for SLC26A7 (GeneID 115111)?
viability hit class: no change; caspase hit class: no change; viability robust z-score: 0.94; caspase robust z-score: -1.01

With TIGD1 (GeneID 200765), how do the results read?
viability hit class: no change; caspase hit class: no change; viability robust z-score: -0.52; caspase robust z-score: -0.7

With GPR39 (GeneID 2863), what was measured?
viability hit class: no change; caspase hit class: no change; viability robust z-score: 0.22; caspase robust z-score: 2.29

With DNAH1 (GeneID 25981), what was measured?
viability hit class: no change; caspase hit class: no change; viability robust z-score: 0.08; caspase robust z-score: -0.38

What did the screen give for FAM169BP (GeneID 283777)?
viability hit class: no change; caspase hit class: no change; viability robust z-score: -0.16; caspase robust z-score: 1.96

Which result is listed for MTR (GeneID 4548)?
viability hit class: no change; caspase hit class: no change; viability robust z-score: 0.22; caspase robust z-score: -0.61
